The target of assay [1] is SAFB of HEK293T cells (human (endogenous in HEK293T)) (UniProt Q15424). In words: co-IP; nuclear extract of HEK293T cells transfected with A3B-FLAG, immunoprecipitated with anti-FLAG, anti-ILF2 or anti-SAFB antibody and Protein G beads at 4 °C, immunoblotting.
The target of assay [2] is APOBEC3B with a 3×FLAG tag knocked in at the C-terminus of the endogenous gene (human (endogenous in AMO1 and RPMI8226)) (UniProt Q9UH17). In words: co-sedimentation; density gradient sedimentation (4 to 36%) of whole cell extracts of AMO1-KI and RPMI8226-KI in GST lysis buffer, 25,000 rpm for 14 h, fractions immunoblotted; without RNase A.
The target is the same in assay [3]. In words: co-sedimentation; density gradient sedimentation (4 to 36%) of whole cell extracts of AMO1-KI and RPMI8226-KI in GST lysis buffer, 25,000 rpm for 14 h, fractions immunoblotted; after RNase A treatment.
The target is the same in assay [4]. In words: co-IP; ANTI-FLAG M2 Affinity Gel, myeloma cell lysates (AMO1-KI, RPMI8226-KI) in low salt RIPA buffer, 4 °C for 2 h, in the presence of RNase A, immunoblotting.

Amino acid sequences for entries named in this document (tags omitted). A change or cut given only in a name is not applied to a line headed by its entry.
UniProt Q15424: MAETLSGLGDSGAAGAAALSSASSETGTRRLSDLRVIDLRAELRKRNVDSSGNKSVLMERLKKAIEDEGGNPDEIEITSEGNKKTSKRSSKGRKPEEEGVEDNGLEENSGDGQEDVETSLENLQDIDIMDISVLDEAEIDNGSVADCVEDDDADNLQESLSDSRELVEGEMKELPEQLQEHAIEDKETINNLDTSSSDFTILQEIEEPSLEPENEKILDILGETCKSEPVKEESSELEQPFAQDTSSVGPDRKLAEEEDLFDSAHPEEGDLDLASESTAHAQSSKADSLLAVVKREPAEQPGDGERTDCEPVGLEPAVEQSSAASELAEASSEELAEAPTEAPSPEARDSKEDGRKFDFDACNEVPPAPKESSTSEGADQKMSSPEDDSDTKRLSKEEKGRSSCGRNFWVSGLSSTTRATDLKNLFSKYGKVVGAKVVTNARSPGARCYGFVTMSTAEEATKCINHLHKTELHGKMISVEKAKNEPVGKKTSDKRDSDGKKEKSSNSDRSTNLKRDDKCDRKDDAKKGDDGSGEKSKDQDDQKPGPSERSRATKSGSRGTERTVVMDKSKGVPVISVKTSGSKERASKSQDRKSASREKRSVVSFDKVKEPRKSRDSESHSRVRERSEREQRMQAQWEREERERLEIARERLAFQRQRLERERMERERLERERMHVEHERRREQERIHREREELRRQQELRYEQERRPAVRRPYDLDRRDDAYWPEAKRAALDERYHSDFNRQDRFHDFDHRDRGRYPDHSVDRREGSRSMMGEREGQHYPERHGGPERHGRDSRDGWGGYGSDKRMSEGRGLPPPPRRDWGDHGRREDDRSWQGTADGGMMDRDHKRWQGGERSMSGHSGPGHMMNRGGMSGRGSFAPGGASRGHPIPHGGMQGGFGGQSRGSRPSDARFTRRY
UniProt Q9UH17: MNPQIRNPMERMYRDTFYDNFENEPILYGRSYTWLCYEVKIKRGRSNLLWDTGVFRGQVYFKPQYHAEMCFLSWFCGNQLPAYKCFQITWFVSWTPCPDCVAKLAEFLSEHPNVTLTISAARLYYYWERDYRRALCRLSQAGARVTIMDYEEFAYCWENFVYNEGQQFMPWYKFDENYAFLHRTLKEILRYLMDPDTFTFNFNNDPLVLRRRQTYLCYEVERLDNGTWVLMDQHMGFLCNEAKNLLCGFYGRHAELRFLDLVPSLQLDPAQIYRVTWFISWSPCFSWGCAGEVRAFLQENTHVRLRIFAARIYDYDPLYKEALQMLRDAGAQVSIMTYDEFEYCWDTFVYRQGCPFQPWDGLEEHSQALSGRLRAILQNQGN

No constants are given. Whether binding was seen depends on the method and setting. In cells and extracts the contact can be indirect. Some entries that bind do so weakly or less than the wild type.

In the case of “A3B-FLAG (from UniProt Q9UH17 1-382) (enzyme)”, the binding entry in assay [1] is reported as “binds”.

B1: Matrin-3 (protein, UniProt P43243 1-847)
chain: MSKSFQQSSLSRDSQGHGRDLSAAGIGLLAAATQSLSMPASLGRMNQGTARLASLMNLGMSSSLNQQGAHSALSSASTSSHNLQSIFNIGSRGPLPLSSQHRGDADQASNILASFGLSARDLDELSRYPEDKITPENLPQILLQLKRRRTEEGPTLSYGRDGRSATREPPYRVPRDDWEEKRHFRRDSFDDRGPSLNPVLDYDHGSRSQESGYYDRMDYEDDRLRDGERCRDDSFFGETSHNYHKFDSEYERMGRGPGPLQERSLFEKKRGAPPSSNIEDFHGLLPKGYPHLCSICDLPVHSNKEWSQHINGASHSRRCQLLLEIYPEWNPDNDTGHTMGDPFMLQQSTNPAPGILGPPPPSFHLGGPAVGPRGNLGAGNGNLQGPRHMQKGRVETSRVVHIMDFQRGKNLRYQLLQLVEPFGVISNHLILNKINEAFIEMATTEDAQAAVDYYTTTPALVFGKPVRVHLSQKYKRIKKPEGKPDQKFDQKQELGRVIHLSNLPHSGYSDSAVLKLAEPYGKIKNYILMRMKSQAFIEMETREDAMAMVDHCLKKALWFQGRCVKVDLSEKYKKLVLRIPNRGIDLLKKDKSRKRSYSPDGKESPSDKKSKTDGSQKTESSTEGKEQEEKSGEDGEKDTKDDQTEQEPNMLLESEDELLVDEEEAAALLESGSSVGDETDLANLGDVASDGKKEPSDKAVKKDGSASAAAKKKLKKVDKIEELDQENEAALENGIKNEENTEPGAESSENADDPNKDTSENADGQSDENKDDYTIPDEYRIGPYQPNVPVGIDYVIPKTGFYCKLCSLFYTNEEVAKNTHCSSLPHYQKLKKFLNKLAEERRQKKET
As to B1, the results for the binding result in assay [2], in assay [3] and in assay [4] were “binds”, “binds” and “no binding (condition: with RNase A)”, respectively.

B2: SRSF7 (protein, UniProt Q16629 1-238)
chain: MSRYGRYGGETKVYVGNLGTGAGKGELERAFSYYGPLRTVWIARNPPGFAFVEFEDPRDAEDAVRGLDGKVICGSRVRVELSTGMPRRSRFDRPPARRPFDPNDRCYECGEKGHYAYDCHRYSRRRRSRSRSRSHSRSRGRRYSRSRSRSRGRRSRSASPRRSRSISLRRSRSASLRRSRSGSIKGSRYFQSPSRSRSRSRSISRPRSSRSKSRSPSPKRSRSPSGSPRRSASPERMD
For the molecule B2, the results for the binding entry in assay [2], in assay [3] and in assay [4] were “binds”, “binds” and “no binding (condition: with RNase A)”, respectively.

These data come from publication PMC8831623.
